Amino acid sequences for entries named in this document (tags omitted). Residues count along the entry.
UniProt P02751, residues 32-2477: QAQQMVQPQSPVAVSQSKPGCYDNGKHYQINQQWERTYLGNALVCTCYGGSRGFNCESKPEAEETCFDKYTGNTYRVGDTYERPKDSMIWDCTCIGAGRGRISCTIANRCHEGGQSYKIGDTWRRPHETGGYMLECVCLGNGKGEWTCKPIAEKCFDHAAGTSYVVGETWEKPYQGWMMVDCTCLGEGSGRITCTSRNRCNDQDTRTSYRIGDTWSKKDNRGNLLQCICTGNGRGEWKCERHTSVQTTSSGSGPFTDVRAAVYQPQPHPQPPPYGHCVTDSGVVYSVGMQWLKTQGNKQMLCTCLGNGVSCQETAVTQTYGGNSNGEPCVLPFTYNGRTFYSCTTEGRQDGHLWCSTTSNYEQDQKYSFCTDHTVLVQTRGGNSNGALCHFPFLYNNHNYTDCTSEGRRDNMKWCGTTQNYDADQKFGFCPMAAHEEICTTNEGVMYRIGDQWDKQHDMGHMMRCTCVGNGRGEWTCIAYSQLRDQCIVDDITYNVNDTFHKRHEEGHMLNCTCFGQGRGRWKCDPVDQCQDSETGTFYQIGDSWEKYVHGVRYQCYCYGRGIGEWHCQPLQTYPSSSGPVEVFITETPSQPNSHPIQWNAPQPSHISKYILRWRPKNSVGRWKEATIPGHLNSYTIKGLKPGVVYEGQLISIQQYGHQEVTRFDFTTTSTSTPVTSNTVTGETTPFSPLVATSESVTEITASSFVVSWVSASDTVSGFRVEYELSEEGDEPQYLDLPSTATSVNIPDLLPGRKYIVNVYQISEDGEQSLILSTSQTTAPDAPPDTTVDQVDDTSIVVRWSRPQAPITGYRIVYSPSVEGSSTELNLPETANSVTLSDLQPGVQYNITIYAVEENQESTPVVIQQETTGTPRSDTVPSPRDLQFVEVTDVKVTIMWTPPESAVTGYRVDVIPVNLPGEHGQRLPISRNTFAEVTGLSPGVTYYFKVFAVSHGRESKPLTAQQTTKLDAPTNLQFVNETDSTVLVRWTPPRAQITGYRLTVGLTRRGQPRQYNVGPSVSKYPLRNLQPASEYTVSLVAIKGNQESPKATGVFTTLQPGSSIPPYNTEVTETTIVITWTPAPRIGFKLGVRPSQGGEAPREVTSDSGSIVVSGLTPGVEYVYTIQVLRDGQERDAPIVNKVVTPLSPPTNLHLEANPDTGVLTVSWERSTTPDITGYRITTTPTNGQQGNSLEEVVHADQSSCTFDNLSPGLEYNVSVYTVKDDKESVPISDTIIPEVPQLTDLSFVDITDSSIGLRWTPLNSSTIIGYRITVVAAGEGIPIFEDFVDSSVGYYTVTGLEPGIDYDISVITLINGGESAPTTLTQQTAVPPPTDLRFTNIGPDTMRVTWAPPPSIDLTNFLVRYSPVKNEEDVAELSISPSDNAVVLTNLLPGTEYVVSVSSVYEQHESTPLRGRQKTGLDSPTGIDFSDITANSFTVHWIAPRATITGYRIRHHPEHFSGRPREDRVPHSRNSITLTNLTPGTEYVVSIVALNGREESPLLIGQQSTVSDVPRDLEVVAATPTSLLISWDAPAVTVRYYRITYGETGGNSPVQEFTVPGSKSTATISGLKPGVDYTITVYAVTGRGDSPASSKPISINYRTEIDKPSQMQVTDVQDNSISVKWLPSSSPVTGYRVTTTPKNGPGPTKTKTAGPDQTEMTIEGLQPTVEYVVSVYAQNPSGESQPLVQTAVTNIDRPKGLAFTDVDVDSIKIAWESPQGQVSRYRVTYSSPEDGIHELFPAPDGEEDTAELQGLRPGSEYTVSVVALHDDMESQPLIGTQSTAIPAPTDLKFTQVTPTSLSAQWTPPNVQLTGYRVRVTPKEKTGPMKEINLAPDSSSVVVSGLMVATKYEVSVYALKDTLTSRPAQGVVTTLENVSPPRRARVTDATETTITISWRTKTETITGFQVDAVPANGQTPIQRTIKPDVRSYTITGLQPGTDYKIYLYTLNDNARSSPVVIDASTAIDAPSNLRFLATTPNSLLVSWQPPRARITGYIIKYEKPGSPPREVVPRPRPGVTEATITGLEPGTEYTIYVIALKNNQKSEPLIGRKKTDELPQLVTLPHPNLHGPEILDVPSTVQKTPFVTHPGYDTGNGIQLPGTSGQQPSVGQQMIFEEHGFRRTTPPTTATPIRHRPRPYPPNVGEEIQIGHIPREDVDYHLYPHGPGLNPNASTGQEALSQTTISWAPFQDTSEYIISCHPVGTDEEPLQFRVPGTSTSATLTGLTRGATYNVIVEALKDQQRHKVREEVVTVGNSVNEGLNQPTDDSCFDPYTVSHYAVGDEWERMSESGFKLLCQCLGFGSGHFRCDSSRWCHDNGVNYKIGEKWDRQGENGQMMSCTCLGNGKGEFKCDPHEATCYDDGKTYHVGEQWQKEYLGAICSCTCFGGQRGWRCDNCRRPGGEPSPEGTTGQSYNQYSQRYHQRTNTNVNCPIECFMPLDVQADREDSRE

According to PMC9169357:

Target: T1, dysadherin (human (endogenous in SW480)) (UniProt Q96DB9)
T1 sequence: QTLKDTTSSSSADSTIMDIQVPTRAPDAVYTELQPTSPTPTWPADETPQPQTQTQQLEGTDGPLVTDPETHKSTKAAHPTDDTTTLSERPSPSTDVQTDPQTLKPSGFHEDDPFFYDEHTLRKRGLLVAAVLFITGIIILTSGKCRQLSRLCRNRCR
Experiment: affinity purification with mass spectrometry; co-IP with the monoclonal anti-dysadherin antibody M53 from whole-protein lysates of SW480 cells, followed by LC-MS

binding: binds
Substance: fibronectin (from UniProt P02751 32-2477)

These are yes or no findings as the source states them, for the method shown. Binding seen in cells or lysates may run through a third protein. Here binding means that the protein was enriched with, or labelled near, the bait; the list need not be complete.
